Assay results from PMC4465499.

Target: BRCA1 of HCC1937 cells (homozygous for a frameshift mutation in BRCA1) (human (endogenous in HCC1937)) (UniProt P38398)
Test: co-IP; endogenous BRCA1 precipitated from total cell extract (MCF-7 or HCC1937) with anti-BRCA1 monoclonal antibody overnight, Protein A/G PLUS-Agarose 2 h at 4 C, three washes in lysis buffer (20 mM NaCl, 30 mM KCl, 0.1% DTT, 0.5% Triton X-100); immunoblot with anti-ATF1

B1: cyclic AMP-dependent transcription factor ATF1 (protein, UniProt P18846 1-271)
chain: MEDSHKSTTSETAPQPGSAVQGAHISHIAQQVSSLSESEESQDSSDSIGSSQKAHGILARRPSYRKILKDLSSEDTRGRKGDGENSGVSAAVTSMSVPTPIYQTSSGQYIAIAPNGALQLASPGTDGVQGLQTLTMTNSGSTQQGTTILQYAQTSDGQQILVPSNQVVVQTASGDMQTYQIRTTPSATSLPQTVVMTSPVTLTSQTTKTDDPQLKREIRLMKNREAARECRRKKKEYVKCLENRVAVLENQNKTLIEELKTLKDLYSNKSV
For B1, the binding was “no binding”.

No constants are given. Whether binding was seen depends on the method and setting. Binding seen in cells or lysates may run through a third protein.
